Some test systems named below: Podoplanin (human); Prolactin (human); Protein 71-7A (human).
Holding throughout (assay): protein microarray (ProtoArray v5.0), streptavidin-Alexa Fluor 647
Settings in all cases: 3'-biotin; 20 mM Tris (pH 7.5), 5 mM MgCl2, 100 mM KCl, 0.1% Tween-20, A/T-rich and random oligonucleotide blockers; temperature not stated; high values mean tight binding

In assay [1] the test system is Plasma membrane calcium-transporting ATPase 3 (human).
The subject of assay [2] is Plasminogen activator inhibitor 2 (human).
Assay [3] has as its system Pleckstrin homology domain-containing family J member 1 (human).
The test system of assay [4] is Polyamine-modulated factor 1 (human).
The subject of assay [5] is Potassium voltage-gated channel subfamily E member 1 (human).
In assay [6] the test system is Potassium voltage-gated channel subfamily E member 2 (human).
The test system of assay [7] is Pre-mRNA-splicing factor 38A (human).
Assay [8] deals with Pre-mRNA-splicing factor ISY1 homolog (human).
The test system of assay [9] is Pregnancy-specific beta-1-glycoprotein 1 (human).
Assay [10] has as its system Prenylated Rab acceptor protein 1 (human).
Assay [11] deals with Probable O-sialoglycoprotein endopeptidase 2 (human).
Assay [12] relates to Probable ergosterol biosynthetic protein 28 (human).
Assay [13] relates to Probable histone acetyltransferase MYST1 (human).
Assay [14] relates to Prostate stem cell antigen (human).
The subject of assay [15] is Proteasome assembly chaperone 2 (human).
The subject of assay [16] is Proteasome subunit alpha type-1 (human).
Assay [17] concerns Proteasome subunit beta type-2 (human).

Where “and” joins values, the source holds several entries; their conditions need not be identical. Identical values can stand only once. The list shows a part of the results.

As for “GGGAGGCTGAGGCAGG [G4-1 biotinylated (PQS2)]”, the binding signal in assay [1] was -0.296 z-score; in assay [2] it was -0.321 z-score; in [3], -0.305 z-score; with Podoplanin (human), -0.357 z-score and -0.349 z-score; in [4], -0.358 z-score; in assay [5], -0.309 z-score. For the same sequence, the binding signal was -0.307 z-score in assay [6]; -0.262 z-score in assay [7]; -0.364 z-score in assay [8]; -0.275 z-score in [9]; -0.343 z-score in [10]; -0.288 z-score in assay [11]. Also, the binding signal was -0.356 z-score in [12]; -0.334 z-score in assay [13]; -0.34 z-score in the assay on Prolactin (human); -0.338 z-score in assay [14]; -0.341 z-score in assay [15]; -0.308 z-score in assay [16]. Besides, the binding signal is -0.354 z-score in [17] and -0.333 z-score in the assay on Protein 71-7A (human).

Source of the values: article PMC5996148.
